Reference: publication PMC7759511
Results are given in words; binding and its absence hold for the method and conditions named. Binding seen in cells or lysates may run through a third protein. Some binding calls cover weakened binding; strength is not graded here.

Molecular target: T1, serpin family E member 2 (human (endogenous in Hep3b and MHCC97h)) (UniProt P07093)
T1 sequence: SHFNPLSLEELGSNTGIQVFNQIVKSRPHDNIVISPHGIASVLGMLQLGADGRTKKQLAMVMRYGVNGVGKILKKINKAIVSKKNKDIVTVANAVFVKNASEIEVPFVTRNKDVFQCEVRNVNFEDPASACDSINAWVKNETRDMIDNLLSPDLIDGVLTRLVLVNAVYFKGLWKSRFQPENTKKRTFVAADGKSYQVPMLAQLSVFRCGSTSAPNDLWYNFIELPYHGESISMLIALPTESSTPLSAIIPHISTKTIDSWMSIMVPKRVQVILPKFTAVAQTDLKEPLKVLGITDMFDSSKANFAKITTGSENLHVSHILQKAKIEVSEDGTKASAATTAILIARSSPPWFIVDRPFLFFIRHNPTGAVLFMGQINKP
Experiment: co-IP; lysates of Hep3b and MHCC97h cells (20 mM HEPES, 150 mM NaCl, 2 mM EDTA, 1.5 mM MgCl2, 0.5% NP-40); anti-BAP31 (FMU-BAP31-2), anti-SERPINE2 or mouse IgG isotype with protein A beads overnight; western blot

binding: binds
B1: B-cell receptor-associated protein 31 (protein, UniProt P51572-1 1-246)
chain: MSLQWTAVATFLYAEVFVVLLLCIPFISPKRWQKIFKSRLVELLVSYGNTFFVVLIVILVLLVIDAVREIRKYDDVTEKVNLQNNPGAMEHFHMKLFRAQRNLYIAGFSLLLSFLLRRLVTLISQQATLLASNEAFKKQAESASEAAKKYMEENDQLKKGAAVDGGKLDVGNAEVKLEEENRSLKADLQKLKDELASTKQKLEKAENQVLAMRKQSEGLTKEYDRLLEEHAKLQAAVDGPMDKKEE
